# Experimental data published in the supplement of paper PMC8728848.
# The other results are listed elsewhere or left out.
# B1: MtEccB1 (Mycobacterium tuberculosis H37Rv), O69734 (protein)
# chain: MGLRLTTKVQVSGWRFLLRRLEHAIVRRDTRMFDDPLQFYSRSIALGIVVAVLILAGAALLAYFKPQGKLGGTSLFTDRATNQLYVLLSGQLHPVYNLTSARLVLGNPANPATVKSSELSKLPMGQTVGIPGAPYATPVSAGSTSIWTLCDTVARADSTSPVVQTAVIAMPLEIDASIDPLQSHEAVLVSYQGETWIVTTKGRHAIDLTDRALTSSMGIPVTARPTPISEGMFNALPDMGPWQLPPIPAAGAPNSLGLPDDLVIGSVFQIHTDKGPQYYVVLPDGIAQVNATTAAALRATQAHGLVAPPAMVPSLVVRIAERVYPSPLPDEPLKIVSRPQDPALCWSWQRSAGDQSPQSTVLSGRHLPISPSAMNMGIKQIHGTATVYLDGGKFVALQSPDPRYTESMYYIDPQGVRYGVPNAETAKSLGLSSPQNAPWEIVRLLVDGPVLSKDAALLEHDTLPADPSPRKVPAGASGAP
# What was measured:
# Experiment in all cases: glycan array binding signal (z-score within array); higher = stronger binding
# Conditions in all cases: glycan notation: IUPAC condensed, linker removed
# [1] = target: Fuc(a1-2)Gal(b1-4)GlcNAc(b1-3)Gal(b1-4)GlcNAc(b1-2)Man(a1-3)[Fuc(a1-2)Gal(b1-4)GlcNAc(b1-3)Gal(b1-4)GlcNAc(b1-2)Man(a1-6)]Man(b1-4)GlcNAc(b1-4)GlcNAc
# Method in brief: (§1)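 Arrays were curated from the Consortium for Functional Glycomics database, 3228 in total, and kept only where the protein sequence was available. Binding is expressed as a within-array Z-score. This score was averaged across arrays of the same protein sequence at different concentrations or buffers and across linkers, and negative values can be read as non-binding.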
# [2] = target: Fuc(a1-2)Gal(b1-4)GlcNAc(b1-3)Gal(b1-4)GlcNAc(b1-3)Gal(b1-4)GlcNAc
# Method in brief: as §1
# [3] = target: Fuc(a1-2)Gal(b1-4)GlcNAc(b1-3)GalNAc
# Method in brief: as §1
# [4] = target: Fuc(a1-2)Gal(b1-4)GlcNAc(b1-3)[Fuc(a1-2)Gal(b1-4)GlcNAc(b1-6)]GalNAc
# Method in brief: as §1
# [5] = target: Fuc(a1-2)Gal(b1-4)GlcNAc(b1-3)[Fuc(a1-3)[Gal(b1-4)]GlcNAc(b1-6)]Gal(b1-4)Glc
# Method in brief: as §1
# [6] = target: Fuc(a1-2)Gal(b1-4)GlcNAc(b1-6)GalNAc
# Method in brief: as §1
# [7] = target: Fuc(a1-2)Gal(b1-4)GlcNAc6S
# Method in brief: as §1
# [8] = target: Fuc(a1-2)Gal(b1-4)[Fuc(a1-3)]GlcNAc
# Method in brief: as §1
# [9] = target: Fuc(a1-2)Gal(b1-4)[Fuc(a1-3)]GlcNAc(b1-2)Man(a1-3)[Fuc(a1-2)Gal(b1-4)[Fuc(a1-3)]GlcNAc(b1-2)Man(a1-6)]Man(b1-4)GlcNAc(b1-4)[Fuc(a1-6)]GlcNAc
# Method in brief: as §1
# [10] = target: Fuc(a1-2)Gal(b1-4)[Fuc(a1-3)]GlcNAc(b1-2)[Fuc(a1-2)Gal(b1-4)[Fuc(a1-3)]GlcNAc(b1-4)]Man(a1-3)[Fuc(a1-2)Gal(b1-4)[Fuc(a1-3)]GlcNAc(b1-2)Man(a1-6)]Man(b1-4)GlcNAc(b1-4)GlcNAc
# Method in brief: as §1
# [11] = target: Fuc(a1-2)Gal(b1-4)[Fuc(a1-3)]GlcNAc(b1-3)Gal(b1-4)[Fuc(a1-3)]GlcNAc
# Method in brief: as §1
# [12] = target: Fuc(a1-2)Gal(b1-4)[Fuc(a1-3)]GlcNAc(b1-3)Gal(b1-4)[Fuc(a1-3)]GlcNAc(b1-3)Gal(b1-4)[Fuc(a1-3)]GlcNAc
# Method in brief: as §1
# [13] = target: Fuc(a1-2)Gal(b1-4)[Fuc(a1-3)]GlcNAc(b1-3)GalNAc
# Method in brief: as §1
# [14] = target: Fuc(a1-2)Gal(b1-4)[Fuc(a1-3)]GlcNAc(b1-3)[Neu5Ac(a2-6)Gal(b1-4)GlcNAc(b1-6)]Gal(b1-4)Glc
# Method in brief: as §1
# [15] = target: Fuc(a1-2)Gal3S(b1-4)GlcNAc
# Method in brief: as §1
# [16] = target: Fuc(a1-2)Gal6S(b1-3)GlcNAc
# Method in brief: as §1
# [17] = target: Fuc(a1-2)Gal6S(b1-3)GlcNAc6S
# Method in brief: as §1
# Fuc(a1-2)Gal6S(b1-4)Glc = target: Fuc(a1-2)Gal6S(b1-4)Glc
# Method in brief: as §1
# [18] = target: Fuc(a1-2)Gal6S(b1-4)Glc6S
# Method in brief: as §1
# Fuc(a1-2)[Gal(a1-3)]Gal = target: Fuc(a1-2)[Gal(a1-3)]Gal
# Method in brief: as §1
# [19] = target: Fuc(a1-2)[Gal(a1-3)]Gal(b1-3)GalNAc
# Method in brief: as §1
# [20] = target: Fuc(a1-2)[Gal(a1-3)]Gal(b1-3)GalNAc(b1-3)Gal(a1-4)Gal(b1-4)Glc
# Method in brief: as §1
# [21] = target: Fuc(a1-2)[Gal(a1-3)]Gal(b1-3)GlcNAc
# Method in brief: as §1
# [22] = target: Fuc(a1-2)[Gal(a1-3)]Gal(b1-3)GlcNAc(b1-2)Man(a1-3)[Fuc(a1-2)[Gal(a1-3)]Gal(b1-3)GlcNAc(b1-2)Man(a1-6)]Man(b1-4)GlcNAc(b1-4)GlcNAc
# Method in brief: as §1
# [23] = target: Fuc(a1-2)[Gal(a1-3)]Gal(b1-3)GlcNAc(b1-2)Man(a1-3)[Fuc(a1-2)[Gal(a1-3)]Gal(b1-3)GlcNAc(b1-2)Man(a1-6)]Man(b1-4)GlcNAc(b1-4)[Fuc(a1-6)]GlcNAc
# Method in brief: as §1
# [24] = target: Fuc(a1-2)[Gal(a1-3)]Gal(b1-3)GlcNAc(b1-3)GalNAc
# Method in brief: as §1
# [25] = target: Fuc(a1-2)[Gal(a1-3)]Gal(b1-3)GlcNAc(b1-6)GalNAc
# Method in brief: as §1
# [26] = target: Fuc(a1-2)[Gal(a1-3)]Gal(b1-4)Glc
# Method in brief: as §1
# [27] = target: Fuc(a1-2)[Gal(a1-3)]Gal(b1-4)GlcNAc
# Method in brief: as §1
# [28] = target: Fuc(a1-2)[Gal(a1-3)]Gal(b1-4)GlcNAc(b1-2)Man
# Method in brief: as §1
binder,measurement,setting,value
B1,glycan array binding signal (z-score),[1],0.811
same,glycan array binding signal (z-score),[2],-0.074
same,glycan array binding signal (z-score),[3],1.3
same,glycan array binding signal (z-score),[4],-0.809
same,glycan array binding signal (z-score),[5],-0.648
same,glycan array binding signal (z-score),[6],-0.427
same,glycan array binding signal (z-score),[7],-0.449
same,glycan array binding signal (z-score),[8],-0.615
same,glycan array binding signal (z-score),[9],1.44
same,glycan array binding signal (z-score),[10],-0.781
same,glycan array binding signal (z-score),[11],0.129
same,glycan array binding signal (z-score),[12],-0.064
same,glycan array binding signal (z-score),[13],-0.518
same,glycan array binding signal (z-score),[14],-0.907
same,glycan array binding signal (z-score),[15],-1.19
same,glycan array binding signal (z-score),[16],-1.26
same,glycan array binding signal (z-score),[17],0.05
same,glycan array binding signal (z-score),Fuc(a1-2)Gal6S(b1-4)Glc,-1.2
same,glycan array binding signal (z-score),[18],-0.258
same,glycan array binding signal (z-score),Fuc(a1-2)[Gal(a1-3)]Gal,-0.098
same,glycan array binding signal (z-score),[19],0.697
same,glycan array binding signal (z-score),[20],0.182
same,glycan array binding signal (z-score),[21],-1.22
same,glycan array binding signal (z-score),[22],-0.315
same,glycan array binding signal (z-score),[23],-2.15
same,glycan array binding signal (z-score),[24],0.379
same,glycan array binding signal (z-score),[25],0.385
same,glycan array binding signal (z-score),[26],0.151
same,glycan array binding signal (z-score),[27],-0.401
same,glycan array binding signal (z-score),[28],-1.29

# Rewritten with bars between the fields: entries from further up
binder | measurement | setting | value
B1 | glycan array binding signal (z-score) | [8] | -0.615
same | glycan array binding signal (z-score) | [9] | 1.44
same | glycan array binding signal (z-score) | [10] | -0.781
same | glycan array binding signal (z-score) | [11] | 0.129
same | glycan array binding signal (z-score) | [12] | -0.064
same | glycan array binding signal (z-score) | [13] | -0.518
same | glycan array binding signal (z-score) | [14] | -0.907
same | glycan array binding signal (z-score) | [15] | -1.19
